Assay results taken from publication PMC10163288.
Some of the results follow.

B1: il10ra_site1_normal_mot_HHH_b1_05357_000000034_0001_23_39_H_._HHH_b2_00526_af2_0001_0000600012_0000001_1_af2pred_0001 (protein)
chain: SSSSSSEEEEELEELLKEAEKIEDPDERAYVLIRAYALAVRLNDPELEELVREVAIRLSSSSSSS
B2: il10ra_site1_sap_16_mot_HHH_b2_03438_af2_000000049_0001_18_34_H_._ems_p1-15H-GBL-16H-GABBL-16H_0175_0001_0001_0002_0001_0000100003_0000001_0_0001 (protein)
chain: SSSSDAHELYRLSREAAELLAEGNPEEAEKLLEEAQKIAEEANDRVLLVVIRFLLRQVERASSSS
B3: il10ra_site1_normal_mot_HHH_b2_06857_af2_000000179_0001_42_54_H_._HHH_b1_05676_af2_0001_0000100011_0000002_0 (protein)
chain: SSSSDELERVFELLRRAAELHSDGDKEEAEKLLEEAEELAEELGNELLRWQIEFLLRALDSSSSS
B4: il10ra_site1_normal_mot_HHH_b1_06789_af2_000000041_0001_1_20_H_._HHH_b2_02598_af2_0001_0000900017_0000001_0_af2pred_dldesign_0_af2pred (protein)
chain: SSSSSAARYMVEQALTAARNLKAAGYLEEAKKALEIARKIAEQNNDAEALKEIAEVEKELESSSS
B5: il10ra_site1_normal_mot_HHH_b2_00622_af2_000000153_0001_40_57_H_._HHH_b1_08750_0001_0000200006_0000001_1_af2pred_0001 (protein)
chain: SSSSSSEEAERLLRILIRAAKQIEDPELRKLSLRAALASAEATGDEELLEEIRQLLEELNSSSSS
B6: il10ra_site1_normal_mot_HHH_b2_03220_af2_000000223_0001_23_40_H_._HHH_b1_07482_0001_0000100005_0000001_0 (protein)
chain: SSSSTEEAEEVWELLREALELREKDPEEARRLVEEAEEIAEEANNENLEFVIRFLLRDINSSSSS
B7: il10ra_site1_sap_22_mot_HHH_b1_07211_af2_000000161_0001_24_40_H_._HHH_b1_07393_0001_0000300023_0000002_0_0001 (protein)
chain: SSSSDASDELYKLSKEALQLEHEGNPEEARRVLEEAEELAEEAGNMVALVNLRYLLERLNSSSSS
B8: il10ra_site1_normal_mot_8756ee2cf497b5429c717dfc0c0bcfd6_0001_000000186_0001_1_13_H_._HHH_b1_03926_0001_0000400036_0000001_0 (protein)
chain: SSSSDEVERIMELLRRASELDLEGNPEEAEELVEEALELARENNNDVLRAQAEYLLRIVRSSSSS
B9: il10ra_site1_sap_23_mot_HHH_b1_01821_000000158_0001_23_39_H_._ems_p1-15H-GBL-16H-GABBL-16H_0381_0001_0001_0002_0001_0000300011_0000003_0_0001 (protein)
chain: SSSSDEAYEFLEEVIKELIELAREGDEEEFEKLVREAERYLEELGNRMTLLSLRSAAEMLSSSSS
B10: il10ra_site1_normal_mot_HHH_b2_01310_000000089_0001_41_55_H_._HHH_b1_07197_af2_0001_0000200008_0000001_0 (protein)
chain: SSSSSEVEERVEQLLKEAEELIEEGDDERVVQLLQEAVRFAFEASNPELLRAVFEVAKLLNSSSS
B11: il10ra_site1_normal_mot_HHH_b2_04680_000000215_0001_1_16_H_._HHH_b2_06378_af2_0001_0000100001_0000001_0 (protein)
chain: SSSSSDEETRKAYRLLREAFEIEDPEEAHKVAEEALEIAEEGGNFVLAWAIRHLLKDLNSSSSSS
B12: il10ra_site1_normal_mot_812af5c65f29141b25d3ed263bec1fb2_0001_1_000000083_0001_36_50_H_._HHH_b2_03332_0001_0000400030_0000001_0_af2pred_0001 (protein)
chain: SSSSSDEEVEEEVERLLEEAKEIDDPEEAVELLVEAARLAYEANDPELLQLVAKVAKELSSSSSS
B13: il10ra_site1_normal_mot_HHH_b1_05357_000000034_0001_23_39_H_._HHH_b2_00878_af2_0001_0000100001_0000001_0_af2pred_0001 (protein)
chain: SSSSSSDLEEEVEKLLEEAEKIEDQLRLAYVLTRAYAVANRLNDPELRELIREVAKKLSSSSSSS
B14: il10ra_site1_sap_23_mot_HHH_b2_07145_000000158_0001_24_40_H_._HHH_b1_07925_af2_0001_0000300024_0000001_0_0001 (protein)
chain: SSSSTVLERSVRVAEEVAKELLEAGDPEAARELLEILLRLLREAGNEELVEELERLLEEIRSSSS
B15: il10ra_site1_sap_10_mot_HHH_b2_05343_000000235_0001_19_35_H_._HHH_b2_05720_0001_0000200027_0000001_0_0001 (protein)
chain: SSSSSDEEERVEELLEEAKEIEDHEERIRVLFEAIHLAIQLQDPELLRLVWEVFRKLAGSSSSSS
B16: il10ra_site1_sap_15_mot_HHH_b1_06994_000000193_0001_40_55_H_._HHH_b1_06779_0001_0000200020_0000002_0_0001 (protein)
chain: SSSSDEAVQEVAELAMEVSRALFRGDRERVEELLERMEELAREANNPAAELLVEIVESALESSSS
B17: il10ra_site1_sap_15_mot_HHH_b1_01347_af2_000000067_0001_42_56_H_._HHH_b1_02043_0001_0000100009_0000001_0_0001 (protein)
chain: SSSSSEMEEYAEIAARFAENAAKSGNPKLARRILERAEEALRHANDEEALELIEELLEELSSSSS
B18: il10ra_site1_sap_15_mot_HHH_b1_07380_000000129_0001_1_20_H_._HHH_b2_04671_0001_0000100002_0000001_0_0001 (protein)
chain: SSSSSDNEEVYRLSKEAAELMADGDEEEAKRVLEEAEELAEELGSRILLKILRFLLRSLNSSSSS
B19: il10ra_site1_normal_mot_HHH_b1_00682_000000211_0001_1_20_H_._HHH_b2_03488_0001_0000200013_0000001_0_af2pred_dldesign_0_af2pred (protein)
chain: SSSSSSPEVRKEVEDLLERAKKEEDPDKRLALLRRAVELAGEAEDPELQARVREVARELISSSSS
B20: il10ra_site1_normal_mot_HHH_b1_06994_000000193_0001_40_55_H_._HHH_b2_02446_0001_0000300038_0000001_0 (protein)
chain: SSSSDLEELVEAALRFAEQAYRHGDPRAVRRRLEALLQLLKADNDEELLEEVEEFLRELESSSSS
B21: il10ra_site1_sap_20_mot_HHH_b2_07579_000000275_0001_1_19_H_._HHH_b2_07036_0001_0000200009_0000001_0_0001 (protein)
chain: SSSSSDAQEEALRLVLKALRLLLRGNPEEARELLEEAEELAREAGDERLLEMIENLLKTNSSSSS
B22: il10ra_site1_sap_16_mot_HHH_b1_00665_000000097_0001_23_39_H_._HHH_b1_03692_0001_0000100017_0000001_0_0001_af2pred_0001 (protein)
chain: SSSSTEEFKRVEELAREALELYKEGDREKAREILEEAEEIAEELGDIVLLWLVRSLLERLKSSSS
B23: il10ra_site1_sap_14_mot_HHH_b2_01379_000000044_0001_42_56_H_._HHH_b2_05904_0001_0000200016_0000001_0_0001 (protein)
chain: SSSSDERREVYELSRRAAEAHSEGNPEEARELLEEAEELAEKVNNRNMLAVLEAMKRLINSSSSS
B24: il10ra_site1_normal_mot_HHH_b1_05357_000000034_0001_23_39_H_._HHH_b2_00694_0002_0000100006_0000001_0_af2pred_0001 (protein)
chain: SSSSSSSEEEVEELLEEAKRIEDRHEVSYLLIRAYAIAYRLGDPELRRLVKEVAQELSSSSSSSS
B25: il10ra_site1_sap_22_mot_690a356816548de866c59e88e666ab0a_0001_1_af2_000000025_0001_1_13_H_._HHH_b1_01796_af2_0001_0000400019_0000001_0_0001_af2pred_0001 (protein)
chain: SSSSDIAEADARQAFKLLEIAHEQNDEELLERALELLEYLARLSNDPEAERLLEEAEKLVGSSSS
B26: il10ra_site1_sap_23_mot_HHH_eva_0509_000000209_0001_39_55_H_._HHH_b1_07761_af2_0001_0000100004_0000001_0_0001_af2pred_0001 (protein)
chain: SSSSSDAKEIAVELLHLLREGNEEEAERVVEEAREELEEKGDPQAVQLLELAFKLLQLAYSSSSS
B27: il10ra_site1_sap_25_mot_65b8060e20531850bca9f2e11f97d954_0001_af2_000000137_0001_17_31_H_._HHH_b1_08498_0001_0000200024_0000001_0_0001 (protein)
chain: SSSSSEEERVLELILEAFRLALRGDPEEAEKLLEEAEKLAEELGDERAARMVRDMLEAQKSSSSS
B28: il10ra_site1_sap_23_mot_HHH_b1_02232_000000288_0001_23_39_H_._HHH_b2_06480_0001_0000100002_0000002_0_0001 (protein)
chain: SSSSDEEQQRLIELILEAARAMIRGDDEQARELLEEAIELAEELGDEEALKQLERFLKSLSSSSS
B29: il10ra_site1_normal_mot_HHH_b2_02337_000000026_0001_38_52_H_._HHH_b1_01793_0001_0000300028_0000002_0 (protein)
chain: SSSSSREEVEELLEELEELLREGDQERFSELAQRIARLAIRVNDPELLQALWELVQEFARKSSSS
B30: il10ra_site1_sap_22_mot_22aa8d8ad8dce7f663ea8fa348a52261_0001_000000025_0001_37_51_H_._d98b4791b6225abad9199bf72535a804_0001_0001_0000400016_0000001_0_0001 (protein)
chain: SSSDKEEAEELYEEAEELLERGDPEEALRVLWRAIHLAVESGDRELLERLYELLHKILREGSSSS
B31: il10ra_site1_sap_16_mot_HHH_b2_02386_000000054_0001_1_20_H_._HHH_b1_00572_0001_0000200014_0000001_0_0001 (protein)
chain: SSSSDEEEEELRELLRRVEELLERGDPERALKVTQKLLRLIYQLSDEEALRELWRLLKKYGSSSS
B32: il10ra_site1_normal_mot_HHH_b1_06789_af2_000000041_0001_1_20_H_._HHH_b2_03706_af2_0001_0000400012_0000001_0_af2pred_0001 (protein)
chain: SSSSDAEFLVRAALKAAERAAKNGDPEKAERALEIARLLAELNNDEELEELVREVEERLGSSSSS
B33: il10ra_site1_normal_mot_HHH_b1_05357_000000034_0001_23_39_H_._ems_p1-16H-GBL-16H-GABBL-15H_0194_0001_0001_0001_0001_0000300024_0000001_0_af2pred_0001 (protein)
chain: SSSSSSEVSYLAIRVLALARQKGDEEVVRLAREILRRYLEGKMSREEAEEELKKLEEEAKSSSSS
B34: il10ra_site1_normal_mot_HHH_b1_02397_af2_000000085_0001_39_57_H_._HHH_b2_06307_af2_0001_0000600004_0000001_1 (protein)
chain: SSSSDKEERIEELLEEAKELYENGNPEEAARVAAEALRLIFELGNEELMRELWEIVKRLGSSSSS
B35: il10ra_site1_sap_18_mot_HHH_b2_00943_af2_000000149_0001_1_17_H_._HHH_b2_08055_0001_0000100005_0000001_0_0001_af2pred_0001 (protein)
chain: SSSSSSDVEELIEEAKELLEKGDPEAKEVLMEALLLAARLGDDEAAHEILKLLAESTTSSSSSSS
B36: il10ra_site1_normal_mot_HHH_b2_00345_af2_000000013_0001_42_56_H_._HHH_b2_01857_0001_0000200015_0000002_0 (protein)
chain: SSSSSDEEEEEVEELLEEAKHIEDEEKRLEILLEATRLALEAQDPELLQLVWEVFHRLIRSSSSS
B37: il10ra_site1_normal_mot_HHH_b2_01705_af2_000000069_0001_44_57_H_._1120a227123fe120892103896c8fe6e4_0001_1_0001_0000600024_0000001_0_af2pred_0001 (protein)
chain: DEKEVLEEAAELVKEGNPREAARLLIELLLKSGDPRLVELLRRVAELLSRGNLEEVHELLRELAR

target: il10ra, Q13651; assay: yeast display titration

Apparent Kd, inactive:
B1 no binding seen
B2 no binding seen
B3 no binding seen
B4 no binding seen
B5 no binding seen
B6 no binding seen
B7 no binding seen
B8 no binding seen
B9 no binding seen
B10 no binding seen
B11 no binding seen
B12 no binding seen
B13 no binding seen
B14 no binding seen
B15 no binding seen
B16 no binding seen
B17 no binding seen
B18 no binding seen
B19 no binding seen
B20 > 1120 nM
B21 no binding seen
B22 no binding seen
B23 no binding seen
B24 no binding seen
B25 no binding seen
B26 no binding seen
B27 no binding seen
B28 no binding seen
B29 no binding seen
B30 no binding seen
B31 no binding seen
B32 no binding seen
B33 no binding seen
B34 no binding seen
B35 no binding seen
B36 no binding seen
B37 no binding seen

Random excerpt: 2 records from the list, in no set order.
Apparent Kd, inactive:
B31 no binding seen
B5 no binding seen
